The other results are listed elsewhere or left out. Most values lie at the level of the controls, where differences are scatter.
compound: CN[C@@H]1C[C@H]2O[C@@](C)([C@@H]1OC)n1c3ccccc3c3c4c(c5c6ccccc6n2c5c31)C(=O)NC4 [staurosporine]; test: log2 fold change of tryptic peptide abundance, ligand vs vehicle (limited proteolysis) (log2 ratio); higher = more trypsin-susceptible (destabilized); settings: ligand concentration: 20 uM; sample: mouse liver crude lysate; replicate design: treated separately

Chains of the proteins cited; added tags and fusions are not shown. Lines headed by an entry give the natural chain unless they say otherwise; changes in a name come on top.
UniProt Q80XU3: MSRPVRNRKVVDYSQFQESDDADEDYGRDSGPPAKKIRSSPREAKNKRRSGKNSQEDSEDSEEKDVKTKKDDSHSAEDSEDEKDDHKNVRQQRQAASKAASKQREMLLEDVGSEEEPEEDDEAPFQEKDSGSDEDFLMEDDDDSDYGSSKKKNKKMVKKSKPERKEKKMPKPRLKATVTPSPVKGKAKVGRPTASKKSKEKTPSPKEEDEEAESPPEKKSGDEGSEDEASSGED
UniProt Q8BH57: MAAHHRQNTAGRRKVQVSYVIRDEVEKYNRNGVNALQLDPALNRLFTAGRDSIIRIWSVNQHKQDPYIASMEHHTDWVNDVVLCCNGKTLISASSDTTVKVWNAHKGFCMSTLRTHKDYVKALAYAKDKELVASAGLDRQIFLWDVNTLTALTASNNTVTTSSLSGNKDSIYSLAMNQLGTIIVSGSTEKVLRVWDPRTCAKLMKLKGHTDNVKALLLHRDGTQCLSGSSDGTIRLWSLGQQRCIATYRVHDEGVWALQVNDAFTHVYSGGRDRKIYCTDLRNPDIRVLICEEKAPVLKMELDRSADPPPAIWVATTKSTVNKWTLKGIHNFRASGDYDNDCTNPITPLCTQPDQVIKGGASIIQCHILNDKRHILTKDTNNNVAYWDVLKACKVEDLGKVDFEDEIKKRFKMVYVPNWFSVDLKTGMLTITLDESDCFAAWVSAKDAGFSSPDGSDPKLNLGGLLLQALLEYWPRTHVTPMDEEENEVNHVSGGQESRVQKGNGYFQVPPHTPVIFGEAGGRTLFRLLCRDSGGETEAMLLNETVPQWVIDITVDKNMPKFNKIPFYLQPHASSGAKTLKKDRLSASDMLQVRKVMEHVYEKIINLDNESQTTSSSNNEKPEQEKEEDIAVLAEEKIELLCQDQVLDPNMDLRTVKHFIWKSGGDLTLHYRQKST
UniProt Q8BFX3: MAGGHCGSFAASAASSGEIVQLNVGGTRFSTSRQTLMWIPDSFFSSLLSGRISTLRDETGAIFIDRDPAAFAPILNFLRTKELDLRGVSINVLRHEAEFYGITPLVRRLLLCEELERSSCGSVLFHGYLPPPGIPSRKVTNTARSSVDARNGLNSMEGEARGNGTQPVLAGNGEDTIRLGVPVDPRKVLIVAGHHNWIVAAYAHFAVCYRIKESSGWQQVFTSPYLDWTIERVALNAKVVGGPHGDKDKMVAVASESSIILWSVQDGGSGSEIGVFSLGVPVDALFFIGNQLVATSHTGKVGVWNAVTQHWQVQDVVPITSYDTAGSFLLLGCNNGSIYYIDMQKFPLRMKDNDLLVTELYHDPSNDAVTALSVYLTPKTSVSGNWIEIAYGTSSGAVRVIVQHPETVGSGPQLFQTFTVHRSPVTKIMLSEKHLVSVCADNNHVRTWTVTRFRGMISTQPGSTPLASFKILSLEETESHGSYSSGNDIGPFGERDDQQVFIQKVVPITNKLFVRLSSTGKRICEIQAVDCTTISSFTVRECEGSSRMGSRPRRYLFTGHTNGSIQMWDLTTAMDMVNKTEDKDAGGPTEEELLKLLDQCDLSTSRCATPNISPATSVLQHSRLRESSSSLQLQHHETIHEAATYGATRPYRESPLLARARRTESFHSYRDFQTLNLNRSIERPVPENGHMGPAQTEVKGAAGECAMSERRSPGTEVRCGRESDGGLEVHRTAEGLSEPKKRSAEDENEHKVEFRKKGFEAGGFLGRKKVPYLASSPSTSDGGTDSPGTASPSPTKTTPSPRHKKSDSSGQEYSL
UniProt Q80W04: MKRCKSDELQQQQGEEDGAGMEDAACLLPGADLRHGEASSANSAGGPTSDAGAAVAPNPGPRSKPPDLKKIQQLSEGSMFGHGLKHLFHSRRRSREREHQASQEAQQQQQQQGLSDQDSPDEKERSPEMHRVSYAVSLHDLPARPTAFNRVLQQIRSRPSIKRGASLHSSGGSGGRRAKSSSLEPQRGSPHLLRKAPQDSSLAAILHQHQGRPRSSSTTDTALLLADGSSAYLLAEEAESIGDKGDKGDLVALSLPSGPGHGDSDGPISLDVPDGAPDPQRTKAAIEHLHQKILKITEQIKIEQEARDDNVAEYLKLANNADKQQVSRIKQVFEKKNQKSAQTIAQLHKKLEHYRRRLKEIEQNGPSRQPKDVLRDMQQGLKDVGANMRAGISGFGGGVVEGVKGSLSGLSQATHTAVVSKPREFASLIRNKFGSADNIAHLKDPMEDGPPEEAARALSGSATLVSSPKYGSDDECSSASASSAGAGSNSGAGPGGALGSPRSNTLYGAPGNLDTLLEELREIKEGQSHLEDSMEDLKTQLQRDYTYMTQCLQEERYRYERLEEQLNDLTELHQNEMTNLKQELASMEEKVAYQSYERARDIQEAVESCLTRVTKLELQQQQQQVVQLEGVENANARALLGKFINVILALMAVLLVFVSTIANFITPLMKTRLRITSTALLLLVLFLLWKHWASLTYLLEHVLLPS
UniProt Q8BHN1: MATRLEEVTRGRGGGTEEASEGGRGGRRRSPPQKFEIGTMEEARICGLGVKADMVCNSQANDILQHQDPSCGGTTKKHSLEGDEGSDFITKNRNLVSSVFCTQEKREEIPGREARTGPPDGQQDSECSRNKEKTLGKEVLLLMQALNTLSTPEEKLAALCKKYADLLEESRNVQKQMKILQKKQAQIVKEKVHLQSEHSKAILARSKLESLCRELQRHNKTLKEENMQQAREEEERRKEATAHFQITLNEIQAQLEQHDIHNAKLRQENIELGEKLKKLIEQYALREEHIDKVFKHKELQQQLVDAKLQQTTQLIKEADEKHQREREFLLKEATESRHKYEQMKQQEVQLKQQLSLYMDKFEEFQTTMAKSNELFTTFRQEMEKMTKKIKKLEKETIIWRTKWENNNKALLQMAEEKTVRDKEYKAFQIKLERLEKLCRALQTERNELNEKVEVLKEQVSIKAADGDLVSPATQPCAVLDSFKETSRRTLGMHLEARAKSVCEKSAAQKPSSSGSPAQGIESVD
UniProt Q80X19: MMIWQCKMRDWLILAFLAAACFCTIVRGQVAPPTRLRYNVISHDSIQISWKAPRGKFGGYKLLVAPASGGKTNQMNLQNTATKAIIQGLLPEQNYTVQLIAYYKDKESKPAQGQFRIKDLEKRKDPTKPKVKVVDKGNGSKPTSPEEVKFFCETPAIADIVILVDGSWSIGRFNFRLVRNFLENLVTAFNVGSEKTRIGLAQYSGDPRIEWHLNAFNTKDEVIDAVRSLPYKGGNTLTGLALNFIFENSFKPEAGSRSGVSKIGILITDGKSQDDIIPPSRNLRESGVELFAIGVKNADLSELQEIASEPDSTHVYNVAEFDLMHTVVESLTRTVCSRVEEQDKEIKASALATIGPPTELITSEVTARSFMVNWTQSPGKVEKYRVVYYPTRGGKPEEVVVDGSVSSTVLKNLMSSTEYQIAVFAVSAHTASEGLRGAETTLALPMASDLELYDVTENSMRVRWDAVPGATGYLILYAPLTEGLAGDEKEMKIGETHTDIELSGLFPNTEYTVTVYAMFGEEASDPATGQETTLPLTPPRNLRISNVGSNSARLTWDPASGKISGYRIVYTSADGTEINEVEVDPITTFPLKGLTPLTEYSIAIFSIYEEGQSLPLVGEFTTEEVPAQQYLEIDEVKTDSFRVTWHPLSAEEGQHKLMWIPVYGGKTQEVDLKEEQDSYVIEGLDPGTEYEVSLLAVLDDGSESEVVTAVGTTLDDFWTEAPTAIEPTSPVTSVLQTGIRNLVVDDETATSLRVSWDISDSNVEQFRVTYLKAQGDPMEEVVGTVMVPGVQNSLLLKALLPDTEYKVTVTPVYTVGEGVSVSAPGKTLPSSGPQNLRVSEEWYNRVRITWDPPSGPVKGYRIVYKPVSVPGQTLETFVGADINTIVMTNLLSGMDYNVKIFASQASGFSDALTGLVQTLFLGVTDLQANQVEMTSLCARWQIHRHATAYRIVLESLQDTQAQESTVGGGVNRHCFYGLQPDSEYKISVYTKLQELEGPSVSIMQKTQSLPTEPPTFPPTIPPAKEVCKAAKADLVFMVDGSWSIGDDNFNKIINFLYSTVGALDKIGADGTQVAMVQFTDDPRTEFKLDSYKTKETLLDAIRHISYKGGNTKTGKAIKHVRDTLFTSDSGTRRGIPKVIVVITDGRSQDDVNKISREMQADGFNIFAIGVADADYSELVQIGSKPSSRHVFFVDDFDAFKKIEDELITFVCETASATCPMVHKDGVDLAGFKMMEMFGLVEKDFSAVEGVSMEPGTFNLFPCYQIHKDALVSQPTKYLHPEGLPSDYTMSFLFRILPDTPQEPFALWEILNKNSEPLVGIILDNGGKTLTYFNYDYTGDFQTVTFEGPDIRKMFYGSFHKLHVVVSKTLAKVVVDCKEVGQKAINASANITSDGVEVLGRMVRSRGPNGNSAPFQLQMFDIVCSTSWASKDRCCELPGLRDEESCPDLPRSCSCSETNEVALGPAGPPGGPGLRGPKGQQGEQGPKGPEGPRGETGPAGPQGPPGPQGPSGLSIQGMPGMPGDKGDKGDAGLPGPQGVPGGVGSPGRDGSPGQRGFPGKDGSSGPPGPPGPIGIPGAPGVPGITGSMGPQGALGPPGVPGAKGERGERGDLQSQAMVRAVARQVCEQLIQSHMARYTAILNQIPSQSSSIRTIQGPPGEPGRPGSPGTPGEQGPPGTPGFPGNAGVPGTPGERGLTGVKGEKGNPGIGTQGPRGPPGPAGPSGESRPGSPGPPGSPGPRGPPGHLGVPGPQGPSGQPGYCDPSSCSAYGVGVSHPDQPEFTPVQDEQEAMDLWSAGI
UniProt Q8BGD9, whole entry: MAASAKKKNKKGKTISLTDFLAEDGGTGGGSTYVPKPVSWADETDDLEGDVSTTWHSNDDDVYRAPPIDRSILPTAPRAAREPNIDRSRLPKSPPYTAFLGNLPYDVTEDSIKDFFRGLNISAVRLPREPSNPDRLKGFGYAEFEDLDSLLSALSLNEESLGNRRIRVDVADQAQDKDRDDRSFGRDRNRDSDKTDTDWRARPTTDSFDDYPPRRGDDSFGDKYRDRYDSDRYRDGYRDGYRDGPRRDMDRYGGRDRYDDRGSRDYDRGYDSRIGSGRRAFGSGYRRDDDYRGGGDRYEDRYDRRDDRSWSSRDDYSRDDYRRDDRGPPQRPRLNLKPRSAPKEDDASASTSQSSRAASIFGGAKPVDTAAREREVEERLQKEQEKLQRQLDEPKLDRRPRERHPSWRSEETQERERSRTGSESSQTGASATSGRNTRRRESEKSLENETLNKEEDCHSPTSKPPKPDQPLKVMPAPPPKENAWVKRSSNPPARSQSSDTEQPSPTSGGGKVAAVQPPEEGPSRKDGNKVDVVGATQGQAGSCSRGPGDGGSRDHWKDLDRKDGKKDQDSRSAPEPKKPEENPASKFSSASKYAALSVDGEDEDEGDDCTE
UniProt Q812A3: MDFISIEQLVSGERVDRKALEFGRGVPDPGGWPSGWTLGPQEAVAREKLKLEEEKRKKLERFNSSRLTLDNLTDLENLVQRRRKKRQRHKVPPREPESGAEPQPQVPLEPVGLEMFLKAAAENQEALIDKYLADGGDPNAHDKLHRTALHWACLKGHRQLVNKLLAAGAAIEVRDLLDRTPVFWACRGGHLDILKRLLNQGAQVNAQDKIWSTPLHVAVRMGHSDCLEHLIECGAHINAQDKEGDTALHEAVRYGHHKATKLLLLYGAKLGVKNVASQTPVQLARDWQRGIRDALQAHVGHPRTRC
UniProt Q80XE1: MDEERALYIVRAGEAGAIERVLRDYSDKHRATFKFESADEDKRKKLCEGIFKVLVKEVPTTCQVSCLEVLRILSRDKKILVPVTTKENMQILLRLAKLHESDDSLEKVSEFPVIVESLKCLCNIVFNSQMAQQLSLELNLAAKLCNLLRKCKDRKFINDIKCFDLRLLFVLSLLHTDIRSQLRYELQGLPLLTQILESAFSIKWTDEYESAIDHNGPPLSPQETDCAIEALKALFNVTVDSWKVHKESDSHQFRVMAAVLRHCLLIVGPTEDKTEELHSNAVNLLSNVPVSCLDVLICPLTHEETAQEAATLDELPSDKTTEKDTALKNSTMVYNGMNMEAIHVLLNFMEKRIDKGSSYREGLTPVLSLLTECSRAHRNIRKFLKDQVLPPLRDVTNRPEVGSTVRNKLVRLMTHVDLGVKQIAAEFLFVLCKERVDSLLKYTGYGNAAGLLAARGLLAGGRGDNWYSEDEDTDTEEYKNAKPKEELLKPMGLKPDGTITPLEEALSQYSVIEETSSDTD
UniProt Q8BHN0: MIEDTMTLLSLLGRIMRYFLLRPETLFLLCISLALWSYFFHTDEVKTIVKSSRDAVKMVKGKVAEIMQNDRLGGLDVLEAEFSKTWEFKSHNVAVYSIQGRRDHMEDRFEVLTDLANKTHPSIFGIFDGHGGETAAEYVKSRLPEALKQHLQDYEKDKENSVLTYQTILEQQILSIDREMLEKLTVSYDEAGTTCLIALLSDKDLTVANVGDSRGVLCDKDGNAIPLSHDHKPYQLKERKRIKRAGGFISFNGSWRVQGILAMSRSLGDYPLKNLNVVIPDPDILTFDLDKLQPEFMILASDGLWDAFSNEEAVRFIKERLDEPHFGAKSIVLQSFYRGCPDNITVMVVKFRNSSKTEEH

Target	log2 fold change
UniProt Q80XU3 (peptide sequence: LKATVTPSPVKGK, peptide start residue: 174)	-0.162
UniProt Q8BH57 (peptide sequence: LSASDMLQVR, peptide start residue: 585)	0.58
UniProt Q8BFX3 (peptide sequence: GFEAGGFLGR, peptide start residue: 758)	-0.677
UniProt Q8BFR4 (peptide sequence: NFNIHGTNK, peptide start residue: 250)	-0.0955
UniProt Q80W04 (peptide sequence: LKEIEQNGPSR, peptide start residue: 358)	0.359
UniProt Q8BHN1 (peptide sequence: AFQIKLER, peptide start residue: 426)	0.796
UniProt Q80X19 (peptide sequence: HVFFVDDFDAFKK, peptide start residue: 1189)	0.115
UniProt Q8BGD9 (peptide sequence: DDDYRGGGDR, peptide start residue: 288)	-0.575
UniProt Q812A3 (peptide sequence: LKLEEEK, peptide start residue: 49)	-0.0425
UniProt Q80XE1 (peptide sequence: ERVDSLLK, peptide start residue: 434)	0.111
UniProt Q80Y86 (peptide sequence: LCDFGLAR, peptide start residue: 154)	-0.179
UniProt Q8BHN0 (peptide sequence: VQGILAMSR, peptide start residue: 257)	0.146
